Source: article PMC6349343
Results are given in words; binding and its absence hold for the method and conditions named. Binding seen in cells or lysates may run through a third protein. Some binding calls cover weakened binding; strength is not graded here.

Sequences of proteins named here, by UniProt entry; tags and fusion partners are left off.
UniProt Q8IYW5: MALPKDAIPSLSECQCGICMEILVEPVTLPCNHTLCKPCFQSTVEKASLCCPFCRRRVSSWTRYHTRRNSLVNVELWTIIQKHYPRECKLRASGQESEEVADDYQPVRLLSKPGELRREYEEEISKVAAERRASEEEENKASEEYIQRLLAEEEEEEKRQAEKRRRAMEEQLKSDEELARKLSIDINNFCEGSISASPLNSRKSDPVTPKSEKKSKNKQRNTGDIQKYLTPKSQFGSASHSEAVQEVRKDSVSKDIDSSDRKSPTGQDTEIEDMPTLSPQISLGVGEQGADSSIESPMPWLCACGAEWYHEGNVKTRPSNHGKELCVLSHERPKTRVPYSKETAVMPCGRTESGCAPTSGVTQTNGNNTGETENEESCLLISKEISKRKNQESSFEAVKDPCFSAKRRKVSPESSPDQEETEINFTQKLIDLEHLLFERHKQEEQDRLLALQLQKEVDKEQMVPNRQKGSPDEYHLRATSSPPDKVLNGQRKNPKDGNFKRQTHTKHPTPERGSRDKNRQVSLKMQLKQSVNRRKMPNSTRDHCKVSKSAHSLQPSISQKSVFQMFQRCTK
UniProt P42224: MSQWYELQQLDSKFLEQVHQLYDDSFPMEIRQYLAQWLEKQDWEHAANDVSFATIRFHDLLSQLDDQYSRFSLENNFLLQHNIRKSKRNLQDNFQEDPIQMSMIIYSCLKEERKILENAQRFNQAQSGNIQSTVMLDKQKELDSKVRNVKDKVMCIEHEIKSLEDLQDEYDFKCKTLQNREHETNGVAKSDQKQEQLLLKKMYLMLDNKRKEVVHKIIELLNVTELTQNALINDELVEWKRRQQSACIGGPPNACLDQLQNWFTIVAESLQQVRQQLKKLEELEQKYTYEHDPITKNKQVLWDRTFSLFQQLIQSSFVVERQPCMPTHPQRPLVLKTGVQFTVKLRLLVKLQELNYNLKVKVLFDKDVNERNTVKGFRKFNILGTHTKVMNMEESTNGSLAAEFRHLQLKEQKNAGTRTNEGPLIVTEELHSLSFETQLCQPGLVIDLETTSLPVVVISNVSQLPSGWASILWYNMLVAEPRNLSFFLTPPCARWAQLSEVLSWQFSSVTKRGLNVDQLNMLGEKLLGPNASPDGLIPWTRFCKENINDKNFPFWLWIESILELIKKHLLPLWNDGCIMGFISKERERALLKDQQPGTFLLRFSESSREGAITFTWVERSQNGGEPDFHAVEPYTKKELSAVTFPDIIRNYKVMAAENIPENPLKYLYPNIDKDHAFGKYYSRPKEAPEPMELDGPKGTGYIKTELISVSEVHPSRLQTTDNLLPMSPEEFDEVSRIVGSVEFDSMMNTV

Key:
[1] = target: RNF168 (RING finger protein 168) (human (endogenous in NEC)) (UniProt Q8IYW5); experiment: co-IP; endogenous proteins, NEC cells harvested with NP-40 lysis buffer; lysate pre-cleared with mouse IgG 2 hours, incubated overnight with RNF168 mouse antibody (SC-101125), mouse IgG as negative control; immunoblot with STAT1 antibody (9172)
[2] = target: RNF168 (RING finger protein 168) (human (endogenous in NEC)) (UniProt Q8IYW5); experiment: co-IP; endogenous proteins, NEC cells separated into cytosol and nuclear fractions (subcellular protein fractionation kit, Thermo Scientific 78840); IP with RNF168 antibody in both the cytosol and nuclear lysis, STAT1 antibody for detection; result told for the nuclear fraction

With STAT1 (from UniProt P42224 1-750) the binding [1] was “binds” and the binding [2] was “binds”.
